Test results: article PMC4621360
Results are given in words; binding and its absence hold for the method and conditions named. Some binding calls cover weakened binding; strength is not graded here.

The chains behind the UniProt entries cited, without tags or fusion partners. Residues count along the entry.
UniProt P02769, residues 25-607: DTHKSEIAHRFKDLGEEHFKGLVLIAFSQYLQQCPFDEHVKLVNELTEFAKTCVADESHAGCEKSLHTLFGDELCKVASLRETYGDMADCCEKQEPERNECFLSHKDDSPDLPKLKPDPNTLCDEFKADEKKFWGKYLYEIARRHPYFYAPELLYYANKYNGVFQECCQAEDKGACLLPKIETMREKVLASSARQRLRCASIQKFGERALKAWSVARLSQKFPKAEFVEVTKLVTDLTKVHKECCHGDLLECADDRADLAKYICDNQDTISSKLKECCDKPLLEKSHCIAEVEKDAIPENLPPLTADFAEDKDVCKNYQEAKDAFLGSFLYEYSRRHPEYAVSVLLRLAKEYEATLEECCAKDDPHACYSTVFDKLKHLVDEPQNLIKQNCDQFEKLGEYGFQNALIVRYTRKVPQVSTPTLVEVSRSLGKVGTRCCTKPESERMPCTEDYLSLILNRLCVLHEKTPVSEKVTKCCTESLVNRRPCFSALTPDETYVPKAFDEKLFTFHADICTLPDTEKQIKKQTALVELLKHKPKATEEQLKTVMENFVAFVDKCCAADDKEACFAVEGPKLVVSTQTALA

Molecular target: FSFG-K, M-Nsp1(274–397)-LEHHHHHH (S. cerevisiae)
Experiment: NMR 15N R2 relaxation; 140 μM 15N-labeled FSFG-K in buffer A with BSA 205 mg/ml, 25°C; both purified

binding: binds weakly
Substance: Bovine Serum Albumin (from UniProt P02769 25-607)
